Source: doi:10.1371/journal.pone.0140310, primary screening data, rounded.

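The test systems are human melanoma cell lines, treated with a single drug for 72 h and then stained and imaged. The read-out is cell count (nuclei) in % of the DMSO control; lower values mean stronger growth inhibition or killing. Every drug was used at one fixed concentration, the higher of two screened. These are primary screening values without error estimates.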 This is part of the screen, not chosen by result. An entry leaves out what has no value listed here. A dash means that no value is listed here.

Drug	A375	MZ2-MEL	MEL-HO	C32	LB2518-MEL	WM1716	WM3526	WM451Lu	SK-MEL-5	COLO 800	SK-MEL-2	IST-MEL1	IPC-298	A101D	501mel
O=C(O)c1ccc2c(c1)nc(Nc1cccc(Cl)c1)c1ccncc12 at 2 µM	76.3	72.8	61.7	92.4	115	95.5	69.6	70.0	106	82.8	78.2	82.2	75.3	66.0	-
C[C@@H](N)c1ccc(C(=O)Nc2ccnc3[nH]ccc23)cc1 at 2 µM	114	63.9	66.0	89.5	110	61.8	83.7	73.2	85.9	73.6	93.3	85.4	91.4	85.8	-
C/C(O)=C(\C#N)C(=O)Nc1cc(Br)ccc1Br at 10 µM	118	103	104	81.5	95.5	103	84.6	105	105	80.3	113	110	108	105	107
C=CCNC1=C2C[C@@H](C)C[C@H](OC)[C@H](O)[C@@H](C)/C=C(\C)[C@H](OC(N)=O)[C@@H](OC)/C=C\C=C(/C)C(=O)NC(=CC1=O)C2=O at 0.01 µM	93.3	125	105	16.4	73.4	87.4	80.8	77.2	99.8	156	102	52.9	100	74.9	-
CCCCCCCCCCCC1=C(O)C(=O)C=C(O)C1=O at 6 µM	95.5	92.8	80.1	103	87.4	88.4	81.4	85.0	96.8	61.4	79.2	62.6	69.7	72.5	99.1
CC[C@]1(O)C[C@H]2CN(CCc3c([nH]c4ccccc34)[C@@](C(=O)OC)(c3cc4c(cc3OC)N(C=O)[C@H]3[C@@](O)(C(=O)OC)[C@H](OC(C)=O)[C@]5(CC)C=CCN6CC[C@]43[C@@H]65)C2)C1 at 0.0005 µM	86.4	97.0	97.3	93.2	80.4	55.7	72.2	46.9	117	84.1	84.5	88.7	95.1	78.2	-
Cc1nc(Nc2ncc(C(=O)Nc3c(C)cccc3Cl)s2)cc(N2CCN(CCO)CC2)n1 at 0.02 µM	64.8	60.3	72.7	77.7	84.4	74.4	102	59.9	62.7	45.1	88.5	73.9	108	64.9	-
O=S(=O)(c1ccccc1)N(CC(F)(F)F)c1ccc(C(O)(C(F)(F)F)C(F)(F)F)cc1 at 7 µM	101	87.2	94.0	100	95.0	111	100	104	67.2	73.4	97.4	94.2	82.1	86.6	82.2
Cc1cc(Nc2cc(N3CCN(C)CC3)nc(Sc3ccc(NC(=O)C4CC4)cc3)n2)n[nH]1 at 0.03 µM	109	79.5	92.4	62.8	75.6	70.0	74.3	90.7	92.6	34.1	85.4	100	94.1	74.0	-
COc1ccc(COc2ccc(Cc3cnc(N)nc3N)cc2OC)cc1 at 5 µM	95.1	101	101	104	136	109	89.0	101	96.4	169	108	109	107	101	97.7
CS(=O)(=O)c1ccc(C(=O)Nc2ccc(Cl)c(-c3ccccn3)c2)c(Cl)c1 at 5 µM	100	83.1	96.9	110	116	89.2	87.9	110	104	70.8	96.9	101	82.2	103	-
Cn1c(Nc2ccc(C(F)(F)F)cc2)nc2cc(Oc3ccnc(-c4ncc(C(F)(F)F)[nH]4)c3)ccc21 at 0.4 µM	77.9	62.3	63.6	41.9	35.1	63.3	44.1	45.4	35.7	105	45.5	83.1	40.8	58.8	-
CS(=O)(=O)CCNCc1ccc(-c2ccc3ncnc(Nc4ccc(OCc5cccc(F)c5)c(Cl)c4)c3c2)o1 at 4 µM	145	81.5	81.7	90.1	97.5	87.0	68.5	86.7	74.5	28.6	80.1	97.5	82.9	72.6	-
CCCCCCCCCCCCCCCCCCOP(=O)([O-])OC1CC[N+](C)(C)CC1 at 2 µM	93.0	106	77.9	94.6	111	97.3	92.5	101	105	64.3	101	106	108	83.5	-
O=C1NC(=O)/C(=C/c2ccc(-c3ccc(F)cc3O)o2)S1 at 5 µM	138	86.0	81.0	99.7	126	83.5	78.6	83.4	75.8	98.1	86.2	109	95.3	119	90.7
Cn1cc(C2=C(c3cn(C4CCN(Cc5ccccn5)CC4)c4ccccc34)C(=O)NC2=O)c2ccccc21 at 4 µM	115	89.6	93.4	120	89.4	88.5	86.6	82.8	89.0	52.1	103	97.9	91.3	97.3	-
Nc1nc(F)nc2c1ncn2[C@@H]1O[C@H](CO)[C@@H](O)[C@@H]1O at 1 µM	35.3	117	75.2	90.2	104	89.9	18.3	106	19.0	97.7	1.4	92.6	79.3	91.9	-
O=C(/C=C/c1cccnc1)NCCCCC1CCN(C(=O)c2ccccc2)CC1 at 0.05 µM	101	38.7	25.8	89.6	66.8	90.5	142	105	120	42.5	23.9	58.6	32.0	113	-
Nc1ncn([C@H]2C[C@H](O)[C@@H](CO)O2)c(=O)n1 at 0.5 µM	80.4	82.6	78.8	128	75.3	70.6	118	109	102	60.4	114	58.7	60.0	86.3	-
CN(c1ncccc1CNc1nc(Nc2ccc3c(c2)CC(=O)N3)ncc1C(F)(F)F)S(C)(=O)=O at 0.4 µM	42.3	82.7	77.4	55.2	99.6	79.0	95.4	49.0	53.0	68.0	76.1	97.3	94.1	75.6	-
CC1(C)CCC(c2ccc(Cl)cc2)=C(CN2CCN(c3ccc(C(=O)NS(=O)(=O)c4ccc(N[C@H](CCN5CCOCC5)CSc5ccccc5)c(S(=O)(=O)C(F)(F)F)c4)cc3)CC2)C1 at 2 µM	75.5	99.8	74.6	82.4	70.3	66.9	112	92.8	81.8	22.2	92.5	86.7	91.1	52.0	-
Cc1ccc(NC(=O)c2cccc(N(C)C)c2)cc1NC(=O)c1ccc(O)cc1 at 10 µM	90.8	101	91.8	86.0	85.6	105	85.2	108	75.5	56.7	87.3	98.1	101	87.5	-
N.N.[Cl][Pt][Cl] at 8 µM	101	92.2	101	85.4	101	87.4	80.6	96.1	90.6	57.0	94.9	110	87.9	75.1	-
CCCCCCCCc1ccc(CCC(N)(CO)CO)cc1 at 10 µM	38.0	1.5	1.8	3.7	0.2	11.1	13.8	2.3	34.2	7.6	0.1	3.3	28.4	6.6	-
Cn1nnc2c(C(N)=O)ncn2c1=O at 10 µM	90.2	82.2	102	100	89.0	50.2	87.7	85.6	92.9	137	86.8	78.0	94.9	65.1	-
CC(=O)c1c(C)c2cnc(Nc3ccc(N4CCNCC4)cn3)nc2n(C2CCCC2)c1=O at 0.2 µM	81.6	72.1	68.1	71.5	56.6	41.4	65.8	62.5	71.7	35.1	78.2	86.7	78.5	69.9	-
CCN(CC)CCNC(=O)c1c(C)[nH]c(/C=C2\C(=O)Nc3ccc(F)cc32)c1C at 2 µM	102	92.5	89.0	75.4	70.0	99.1	59.3	69.2	57.1	36.0	88.9	82.8	66.3	59.1	-
CCc1ccc(CCOc2ccc(CC3SC(=O)NC3=O)cc2)nc1 (stereo unspecified) at 10 µM	127	94.1	85.4	111	81.9	94.0	88.1	108	80.5	103	95.4	94.5	90.6	97.8	95.7
N#Cc1c(O)c2c(-c3ccc(-c4ccccc4O)cc3)csc2[nH]c1=O at 10 µM	88.7	109	89.4	108	80.5	112	85.5	114	92.8	69.3	97.8	87.9	89.3	92.2	85.9
NCC(=O)Nc1ccc(-n2nc(C(F)(F)F)cc2-c2ccc3c(ccc4ccccc43)c2)cc1 at 5 µM	58.7	91.7	76.5	106	82.0	97.3	54.3	101	63.7	75.5	38.3	72.6	55.9	87.0	-
O=C(CCCCCCC(=O)Nc1ccccc1)NO at 0.4 µM	137	132	104	132	89.7	97.8	88.2	82.5	84.9	84.4	89.9	95.0	108	95.0	-
C=C(c1ccc(C(=O)O)cc1)c1cc2c(cc1C)C(C)(C)CCC2(C)C at 10 µM	102	93.8	103	145	113	106	120	94.1	114	159	107	126	82.9	113	-
CC(C)(C)c1cnc(CSc2cnc(NC(=O)C3CCNCC3)s2)o1 at 0.05 µM	97.8	98.3	95.0	93.6	79.5	96.0	109	76.7	61.2	71.3	106	78.1	102	88.8	-
O=C(O)C(=O)Nc1sc2c(c1C(=O)O)CCNC2 at 8.33 µM	163	101	86.4	93.7	91.8	84.0	85.4	84.2	80.2	115	93.8	84.8	95.9	84.1	103
Cc1cc(Nc2cc(N3CCN(C)CC3)nc(/C=C/c3ccccc3)n2)n[nH]1 at 0.2 µM	115	127	97.6	103	87.3	87.1	131	90.7	83.7	40.6	124	120	96.1	92.2	-
Cn1cnc2c(F)c(Nc3ccc(Br)cc3Cl)c(C(=O)NOCCO)cc21 at 0.075 µM	78.6	64.5	83.0	77.2	48.0	68.7	55.9	49.7	63.8	102	50.7	87.3	51.3	59.0	-

For reference, 4 entries once more:

- NCC(=O)Nc1ccc(-n2nc(C(F)(F)F)cc2-c2ccc3c(ccc4ccccc43)c2)cc1 at 5 µM | A375: 58.7; MZ2-MEL: 91.7; MEL-HO: 76.5; C32: 106; LB2518-MEL: 82.0; WM1716: 97.3; WM3526: 54.3; WM451Lu: 101; SK-MEL-5: 63.7; COLO 800: 75.5; SK-MEL-2: 38.3; IST-MEL1: 72.6; IPC-298: 55.9; A101D: 87.0
- C=CCNC1=C2C[C@@H](C)C[C@H](OC)[C@H](O)[C@@H](C)/C=C(\C)[C@H](OC(N)=O)[C@@H](OC)/C=C\C=C(/C)C(=O)NC(=CC1=O)C2=O at 0.01 µM | A375: 93.3; MZ2-MEL: 125; MEL-HO: 105; C32: 16.4; LB2518-MEL: 73.4; WM1716: 87.4; WM3526: 80.8; WM451Lu: 77.2; SK-MEL-5: 99.8; COLO 800: 156; SK-MEL-2: 102; IST-MEL1: 52.9; IPC-298: 100; A101D: 74.9
- COc1ccc(COc2ccc(Cc3cnc(N)nc3N)cc2OC)cc1 at 5 µM | A375: 95.1; MZ2-MEL: 101; MEL-HO: 101; C32: 104; LB2518-MEL: 136; WM1716: 109; WM3526: 89.0; WM451Lu: 101; SK-MEL-5: 96.4; COLO 800: 169; SK-MEL-2: 108; IST-MEL1: 109; IPC-298: 107; A101D: 101; 501mel: 97.7
- CC[C@]1(O)C[C@H]2CN(CCc3c([nH]c4ccccc34)[C@@](C(=O)OC)(c3cc4c(cc3OC)N(C=O)[C@H]3[C@@](O)(C(=O)OC)[C@H](OC(C)=O)[C@]5(CC)C=CCN6CC[C@]43[C@@H]65)C2)C1 at 0.0005 µM | A375: 86.4; MZ2-MEL: 97.0; MEL-HO: 97.3; C32: 93.2; LB2518-MEL: 80.4; WM1716: 55.7; WM3526: 72.2; WM451Lu: 46.9; SK-MEL-5: 117; COLO 800: 84.1; SK-MEL-2: 84.5; IST-MEL1: 88.7; IPC-298: 95.1; A101D: 78.2